This data set in a line: general procedure: Fmoc solid-phase peptide synthesis; Fmoc-Lys-Boc-Wang resin (GL Biochem). As to conditions: whole synthesis, scale of the general procedure 9.15 g resin, acetate (anion exchange with ammonium acetate/HAc).
The mark [1] stands for this setting: HPLC, UV at 220 nm (Shimadzu LCMS-8050 / LC-20, ZORBAX Eclipse SB-C18).

Square brackets hold non-standard residues; d marks the D form. Ends that are not written are not given here. Dopa = N[C@@H](Cc1ccc(O)c(O)c1)C(=O)O; Hyp = O=C(O)[C@@H]1C[C@@H](O)CN1

AKPSY[Hyp]T[Dopa][Hyp]K: the “crude purity (method not given)” value under setting [1] is listed as 74.493%.

Turning to “3,4-dihydrocinnamic acid-Ala-Lys-Pro-Ser-Tyr-Hyp-Thr-Tyr-Hyp-Lys”, under setting [1], the “crude purity (method not given)” value was 79.183%.

For AKPSY[Hyp]TY[Hyp]K, under setting [1], the “final HPLC purity” value is 98%. For the same substance, where the note is “UV 220 nm”, the “crude purity (method not given)” value is 77.256%.

As to AK[Hyp]SY[Hyp]T[Dopa][Hyp]K, under setting [1], the “crude purity (method not given)” value came out at 75.365%.

The values above are taken from patent publication US12612430 (dated 2026).
